PubChem BioAssay AID1259425 | University of Nebraska Medical Center | 2018
Assay: 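Compare each knockdown with KSR1 silencing using changes in marker transcripts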 (primary screen). System: HCT116 human colon cancer cells. Reagents: siRNA pool against human genes, 50 nM siRNA. Measurement: 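mRNA of six signature genes measured together by branched-DNA assay after 50 nM siRNA pool, blank removed, divided by geometric mean of two housekeeping genes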. Reading the numbers: BNIP3L mRNA: higher = more BNIP3L transcript after knockdown; NDRG1 mRNA: higher = more NDRG1 transcript after knockdown; BNIP3 mRNA: higher = more BNIP3 transcript after knockdown; ALDOC mRNA: higher = more ALDOC transcript after knockdown.
The deposit covers about 14,000 reagents; below is an unselected part. Further read-outs or replicates are left out here. Not given: the time to read-out.

no.	Gene	BNIP3L mRNA, set 1	NDRG1 mRNA, set 1	BNIP3 mRNA, set 1	ALDOC mRNA, set 1
1	SPP2	0.116	0.225	0.244	0.0497
2	PEX12	0.178	0.17	0.405	0.047
3	XRN2	0.0451	0.177	0.357	0.014
4	IL2	0.12	0.117	0.431	0.0176
5	PON1	0.111	0.105	0.294	0.0227
6	FAM3C	0.159	0.149	0.185	0.0579
7	FAM117B	0.568	2.98	1.4	0.112
8	CLN3	0.128	0.107	0.416	0.0198
9	IL17A	0.078	0.172	0.196	0.00962
10	DPCD	0.179	0.169	0.369	0.0714
11	RPAP1	0.247	1.08	0.76	0.00207
12	DNAJC2	0.0719	0.0896	0.3	0.0232
13	RNF122	0.0668	0.184	0.25	0.0351
14	DTNA	0.0467	0.0659	0.418	0.0129
15	ZC3H7B	0.126	0.181	0.293	0.031
16	FOXC2	0.156	0.0724	0.416	0.0112
17	PYGO1	0.164	0.448	0.406	0.0412
18	TRAPPC6A	0.174	0.273	0.304	0.0416
19	SMAD4	0.108	0.252	0.372	0.0162
20	TRPC4	0.0948	0.11	0.396	0.0243
21	FBXL3	0.0869	0.1	0.211	0.0252
22	HNRNPA1	0.179	1.18	0.331	0.013
23	UTP25	0.138	0.269	0.39	0.0412
24	VPS50	0.12	0.183	0.303	0.0136
25	FGF16	0.0755	0.159	0.36	0.024
26	KLHL5	0.123	0.179	0.378	0.026
27	PMCHL1	0.162	0.253	0.37	0.0319
28	INTU	0.115	0.214	0.393	0.0269
29	GPR18	0.175	0.162	0.4	0.0971
30	HOXA11	0.138	0.0644	0.316	0.0174
31	TFAP2A	0.124	0.133	0.225	0.0124
32	MEP1A	0.0838	0.18	0.241	0.0209
33	RNF121	0.102	0.291	0.344	0.0348
34	NELFA	0.107	0.19	0.39	0.0154
35	CLEC4D	0.106	0.168	0.292	0.0304
36	DUOX2	0.163	1.42	0.179	0.0551
37	LPAR2	0.181	0.167	0.231	0.0457
38	IL13RA1	0.0864	0.17	0.376	0.0191
39	SLAMF7	0.0857	0.119	0.348	0.0441
40	ZNF277	0.172	0.403	0.362	0.019
41	RNASE2	0.325	0.303	0.542	0.0153
42	FASN	0.111	0.432	0.199	0.0673
43	DDX23	0.212	0.253	0.432	0.0512
44	CYP11A1	0.0786	0.235	0.319	0.0206
45	RAB40B	0.135	0.113	0.391	0.0151
46	ITIH2	0.153	0.13	0.308	0.022
47	CXCL6	0.132	0.288	0.241	0.0316
48	ENY2	0.23	0.122	0.263	0.022
49	GALR1	0.0981	0.0987	0.306	0.0325
50	MSX2	0.109	0.505	0.32	0.0284
51	PGF	0.116	0.171	0.266	0.049
52	ZNF608	0.135	0.19	0.199	0.03
53	LZTS2	0.183	0.185	0.383	0.0474
54	MALT1	0.189	0.9	0.426	0.0172
55	AKAP4	0.153	0.0748	0.19	0.00256
56	FUBP3	0.12	0.116	0.255	0.0226
57	HGS	0.141	0.323	0.303	0.0238
58	EHD3	0.106	0.299	0.294	0.0268
59	CCKBR	0.0561	0.0932	0.242	0.0203
60	PTPN11	0.0659	0.0732	0.194	0.0177
61	MYH8	0.0687	0.141	0.226	0.0247
62	RXFP3	0.0955	0.316	0.392	0.0767
63	FSTL5	0.0867	0.248	0.276	0.0295

Reformatted: 9 of the entries above
DNAJC2: BNIP3L mRNA, set 1 = 0.0719; NDRG1 mRNA, set 1 = 0.0896; BNIP3 mRNA, set 1 = 0.3; ALDOC mRNA, set 1 = 0.0232
RNF122: BNIP3L mRNA, set 1 = 0.0668; NDRG1 mRNA, set 1 = 0.184; BNIP3 mRNA, set 1 = 0.25; ALDOC mRNA, set 1 = 0.0351
DTNA: BNIP3L mRNA, set 1 = 0.0467; NDRG1 mRNA, set 1 = 0.0659; BNIP3 mRNA, set 1 = 0.418; ALDOC mRNA, set 1 = 0.0129
ZC3H7B: BNIP3L mRNA, set 1 = 0.126; NDRG1 mRNA, set 1 = 0.181; BNIP3 mRNA, set 1 = 0.293; ALDOC mRNA, set 1 = 0.031
FOXC2: BNIP3L mRNA, set 1 = 0.156; NDRG1 mRNA, set 1 = 0.0724; BNIP3 mRNA, set 1 = 0.416; ALDOC mRNA, set 1 = 0.0112
PYGO1: BNIP3L mRNA, set 1 = 0.164; NDRG1 mRNA, set 1 = 0.448; BNIP3 mRNA, set 1 = 0.406; ALDOC mRNA, set 1 = 0.0412
TRAPPC6A: BNIP3L mRNA, set 1 = 0.174; NDRG1 mRNA, set 1 = 0.273; BNIP3 mRNA, set 1 = 0.304; ALDOC mRNA, set 1 = 0.0416
SMAD4: BNIP3L mRNA, set 1 = 0.108; NDRG1 mRNA, set 1 = 0.252; BNIP3 mRNA, set 1 = 0.372; ALDOC mRNA, set 1 = 0.0162
TRPC4: BNIP3L mRNA, set 1 = 0.0948; NDRG1 mRNA, set 1 = 0.11; BNIP3 mRNA, set 1 = 0.396; ALDOC mRNA, set 1 = 0.0243
